Reference: PubChem BioAssay AID652243 (Drosophila RNAi Screening Center, 2013)
Screen: 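Knock-downs that decrease or increase androgen receptor reporter signal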 (primary screen). System: Drosophila S2R+ cells. Reagents: long dsRNA against Drosophila genes. Duration: 72 h (48 h, then 24 h hormone). Challenge: synthetic androgen R1881 at 10 nM for 24 h. Detection: 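Per-well raw luminescence of the androgen-driven firefly reporter and of the Renilla control, two replicates each, without normalisation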. Direction: firefly reporter light: higher = more light from androgen-responsive reporter; Renilla control light: higher = more constitutive control signal (cell number, transfection). Active means: 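Hit when the log firefly-to-Renilla ratio dropped or increased by a fixed fold versus the mean of GFP or LacZ controls across duplicate plates; lowering cut given as 1.5 and as 3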. Meaning of the calls: active = hit: reporter lowered or raised; inactive = no hit.
The screen tested about 24,000 reagents; shown is a random part of those with a known target gene and a result. Of all reagents, 246 (1%) were called active. 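Plates not normalised; calls are printed but the firefly/Renilla ratio behind them is not deposited; fold cut for lowering reported inconsistently.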 Raw values are not corrected between plates. Names joined by + are all predicted targets of the reagent. Reagent sequences are not shown. Not given: the amount of reagent.

gene knocked down	amplicon	firefly reporter light, replicate 1	firefly reporter light, replicate 2	Renilla control light, replicate 1	Renilla control light, replicate 2	activity call
MBD-like	DRSC16996	2.06e5	2.58e5	3.62e6	4.02e6	inactive
CG15601	DRSC19670	8.20e5	7.48e5	3.51e6	1.82e6	inactive
CR43670 + CR43671 + CR43669	DRSC01554	1.48e5	1.96e5	4.87e5	7.45e5	inactive
CR43670 + CR43671 + CR43669	DRSC01556	1.77e5	1.67e5	5.84e5	8.19e5	inactive
CG32712	DRSC17820	1.85e5	1.59e5	7.36e5	6.12e5	inactive
CG15760	DRSC19725	3.49e5	4.62e5	2.58e6	2.55e6	inactive
CG15760	DRSC25944	5.19e5	4.29e5	1.11e6	1.19e6	inactive
CG42814	DRSC15940	76935	82415	1.26e6	1.47e6	inactive
CG10616	DRSC09750	1.14e6	5.85e5	1.66e6	1.11e6	inactive
Karybeta3	DRSC12355	42754	42408	3.67e5	3.40e5	inactive
Sema2a	DRSC07551	5.33e5	6.98e5	1.90e6	2.06e6	inactive
CG13029	DRSC09909	3.48e5	3.02e5	3.51e6	2.67e6	inactive
Ccdc114	DRSC15025	1.08e5	1.33e5	1.75e6	1.82e6	inactive
AstA-R2	DRSC14171	1.48e5	1.81e5	2.37e6	3.05e6	inactive
AstA-R2	DRSC24820	6.21e5	7.29e5	1.03e6	8.10e5	inactive
CG15923	DRSC15129	66562	1.36e5	5.44e5	7.05e5	inactive
CG15888	DRSC15125	1.06e5	1.29e5	1.38e6	1.76e6	inactive
CG15888	DRSC26530	2.58e5	2.18e5	6.38e5	6.50e5	inactive
Nf1	DRSC16758	32232	84813	3.29e5	4.85e5	inactive
Nf1	DRSC29934	8.21e5	8.88e5	1.08e6	1.38e6	inactive
CG14693	DRSC14916	1.18e5	85281	1.65e6	2.46e6	inactive

Look-ups from the list.
CG14693 [DRSC14916], Renilla control light, replicate 1: 1.65e6
CG13029 [DRSC09909], Renilla control light, replicate 1: 3.51e6
Under “activity call”, Karybeta3 [DRSC12355] shows inactive
For “activity call”, CG32712 [DRSC17820] reads inactive

Further results follow:
gene knocked down	amplicon	firefly reporter light, replicate 1	firefly reporter light, replicate 2	Renilla control light, replicate 1	Renilla control light, replicate 2	activity call
Prx6c + CG12896 + Prx6b	DRSC06148	2.82e5	2.85e5	1.88e6	2.02e6	inactive
Prx6c + CG12896 + Prx6b	DRSC28111	6.60e5	6.36e5	2.25e6	1.99e6	inactive
Qsox4	DRSC14224	67353	61624	4.73e5	4.47e5	inactive
CG43439 + CG32388	DRSC08861	2.46e5	1.94e5	8.05e5	6.30e5	inactive
CG32085	DRSC10138	3.11e5	3.17e5	3.23e6	2.54e6	inactive
CG32085	DRSC10139	2.15e5	2.34e5	2.65e6	2.01e6	inactive
CG32085	DRSC10576	1.33e5	1.14e5	1.78e6	1.49e6	inactive
Dg	DRSC06718	68638	89731	1.89e6	1.89e6	inactive
Cyp6a8	DRSC07384	8.91e5	8.42e5	2.64e6	2.34e6	inactive
GstE9	DRSC06679	87572	1.99e5	1.12e6	1.65e6	inactive
GstE9	DRSC29204	6.46e5	4.84e5	1.36e6	1.15e6	inactive
CG34265	DRSC38852	8.09e5	7.65e5	1.47e6	1.70e6	inactive
Achl	DRSC06665	66987	67356	6.80e5	6.80e5	inactive
Achl	DRSC29366	4.04e5	4.47e5	1.17e6	1.17e6	inactive
Rab4 + CG42239	DRSC05667	1.40e5	1.82e5	3.85e5	3.67e5	inactive
CG3081	DRSC18571	1.03e5	1.52e5	1.97e6	2.49e6	inactive
CG40228	DRSC37832	1.20e6	8.45e5	3.30e6	2.37e6	inactive
halo	DRSC00705	1.16e5	1.59e5	1.12e6	1.43e6	inactive
halo	DRSC27447	3.20e5	2.94e5	8.77e5	9.09e5	inactive
dia	DRSC03519	83223	76107	1.28e6	1.14e6	inactive
dia	DRSC24127	6.26e5	5.65e5	3.79e5	3.98e5	inactive
CG34054	DRSC37910	6.32e5	6.52e5	1.26e6	1.61e6	inactive
Gr22f	DRSC00076	2.51e5	2.56e5	6.10e5	4.42e5	inactive
Gr22f	DRSC26841	3.45e5	3.43e5	8.72e5	7.88e5	inactive
Pgd	DRSC18697	30631	43898	5.01e5	3.31e5	inactive
Pgd	DRSC39148	7.41e5	6.77e5	1.35e6	1.15e6	inactive
CG11191	DRSC23224	6.87e5	8.14e5	1.13e6	8.92e5	inactive
CG11191	DRSC28710	4.50e5	3.12e5	1.18e6	9.29e5	inactive
hb	DRSC16963	17662	19542	1.69e5	2.10e5	inactive
hb	DRSC27856	1.48e6	6.17e5	4.05e6	1.61e6	inactive
CG9213	DRSC20170	1.23e5	1.18e5	5.96e5	6.53e5	inactive
CG9213	DRSC24500	8.41e5	7.98e5	9.69e5	1.08e6	inactive
Noc1	DRSC10921	1.02e6	9.39e5	1.02e6	8.42e5	inactive
Idgf3	DRSC03351	9.21e5	9.66e5	7.76e5	1.89e6	inactive
GABPI	DRSC00494	8.31e5	9.87e5	1.76e6	1.36e6	inactive
GABPI	DRSC27495	2.34e5	2.29e5	5.61e5	8.63e5	inactive
CG40992 (retired record)	DRSC38637	9.14e5	6.31e5	2.46e6	2.05e6	inactive
